Assay: general procedure: solution-phase peptide synthesis; 1,3-dicyclohexylcarbodiimide / 1-hydroxybenzotriazole monohydrate
Settings: coupling step

Row | Substance | step yield [%]
1 | (S)-2-[(2-furoyl)-β-cyclohexyl-L-alanyl-glycyl-glycyl-amino]-5-(1-piperidinyl)pentanoic acid N-[2-(1-piperidinyl)ethyl] amide dihydrochloride | 58
2 | (S)-2-[(2-furoyl)-β-cyclohexyl-L-alanyl-glycyl-glycyl-amino]-5-(1-piperidinyl)pentanoic acid benzyl amide | 94
